Experimental data as given in patent US7960377B2 (priority 2008, dated 2011).
Like-named read-outs stand apart in the source and are kept apart here. Some entries share one result that the patent states for a list of compounds.

Chains of the proteins cited; added tags and fusions are not shown.
UniProt P34972, whole entry: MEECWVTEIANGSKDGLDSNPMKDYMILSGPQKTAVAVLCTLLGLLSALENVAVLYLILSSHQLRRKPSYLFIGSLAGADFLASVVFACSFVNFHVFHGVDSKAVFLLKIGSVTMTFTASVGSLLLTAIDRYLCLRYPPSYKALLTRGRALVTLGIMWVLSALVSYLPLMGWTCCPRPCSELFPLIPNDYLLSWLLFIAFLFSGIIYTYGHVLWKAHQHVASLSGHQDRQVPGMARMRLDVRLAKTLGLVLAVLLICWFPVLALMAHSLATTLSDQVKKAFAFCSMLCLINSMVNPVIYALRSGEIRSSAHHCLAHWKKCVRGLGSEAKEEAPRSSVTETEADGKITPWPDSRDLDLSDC

Key:
human CB2 receptor = human CB2 receptor (Homo sapiens, UniProt P34972); format: cell-based; conditions: read-out: EC50 values for human CB2 receptor, change in intracellular cAMP, CHO-K1 hCB2 cells
rat CB2 receptor = biological target: T1, rat CB2 receptor (Rattus norvegicus, UniProt Q9QZN9); format: cell-based; conditions: read-out: EC50 values for rat CB2 receptor; change in intracellular cAMP, CHO-K1 rCB2 cells; EC50 bins in nM
T1 sequence (Q9QZN9 1-360): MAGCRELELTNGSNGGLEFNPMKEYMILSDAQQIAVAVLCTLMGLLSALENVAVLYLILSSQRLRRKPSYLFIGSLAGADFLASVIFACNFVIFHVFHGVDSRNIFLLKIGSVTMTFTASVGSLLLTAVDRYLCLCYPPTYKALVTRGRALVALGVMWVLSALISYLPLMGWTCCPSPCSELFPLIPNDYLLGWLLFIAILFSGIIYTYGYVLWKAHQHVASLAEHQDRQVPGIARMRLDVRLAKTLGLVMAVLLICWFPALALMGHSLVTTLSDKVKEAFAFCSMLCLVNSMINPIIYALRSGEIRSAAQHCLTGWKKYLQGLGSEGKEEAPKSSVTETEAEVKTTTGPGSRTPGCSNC

[1] = bin >300 nM-3 μM, units given in the value

SMILES | EC50 (human CB2 receptor; [1]) | EC50 (rat CB2 receptor) | EC50 (human CB2 receptor; bin in μM) | EC50 (human CB2 receptor; EC50 bins in nM)
Cc1cc(F)ccc1S(=O)(=O)N1CCOc2ncc(C(=O)NC(C)(C)C)cc21 [Example 56, N-tert-butyl-1-(4-fluoro-2-methylphenylsulfonyl)-2,3-dihydro-1H-pyrido[2,3-b][1,4]oxazine-7-carboxamide] | 0.3 to 3 µM | 30 to 300 nM | – | –
CC(C)(C)NC(=O)c1cnc2c(c1)N(S(=O)(=O)c1ccc(F)cc1Cl)CCO2 [Example 57, N-tert-butyl-1-(2-chloro-4-fluorophenylsulfonyl)-2,3-dihydro-1H-pyrido[2,3-b][1,4]oxazine-7-carboxamide] | 0.3 to 3 µM | 30 to 300 nM | – | –
CC(C)(C)NC(=O)c1cnc2c(c1)N(S(=O)(=O)Cc1ccccc1)CCO2 [Example 60, 1-(benzylsulfonyl)-N-tert-butyl-2,3-dihydro-1H-pyrido[2,3-b][1,4]oxazine-7-carboxamide] | 0.3 to 3 µM | 30 to 300 nM | – | –
CC(C)(C)NC(=O)c1cnc2c(c1)N(S(=O)(=O)Cc1ccc(F)cc1)CCO2 [Example 62, N-tert-butyl-1-(4-fluorobenzylsulfonyl)-2,3-dihydro-1H-pyrido[2,3-b][1,4]oxazine-7-carboxamide] | 0.3 to 3 µM | 30 to 300 nM | – | –
CC(C)(CN1CCCCC1)NC(=O)c1cnc2c(c1)N(S(=O)(=O)c1ccc(C(F)(F)F)cc1)CCO2 [Example 77, N-(2-methyl-1-(piperidin-1-yl)propan-2-yl)-1-(4-(trifluoromethyl)phenylsulf-onyl)-2,3-dihydro-1H-pyrido[2,3-b][1,4]oxazine-7-carboxamide] | 0.3 to 3 µM | 30 to 300 nM | – | –
CCCS(=O)(=O)N1CCOc2ncc(C(=O)NC(C)(C)C)cc21 [Example 79, N-tert-butyl-1-(propylsulfonyl)-2,3-dihydro-1H-pyrido[2,3-b][1,4]oxazine-7-carboxamide] | 0.3 to 3 µM | 30 to 300 nM | – | –
CC(C)(C)NC(=O)c1cnc2c(c1)N(S(=O)(=O)c1ccc(C(C)(C)C)cc1)CCO2 [Example 82, N-tert-butyl-1-(4-tert-butylphenylsulfonyl)-2,3-dihydro-1H-pyrido[2,3-b][1,4]oxazine-7-carboxamide] | 0.3 to 3 µM | 30 to 300 nM | – | –
CC(C)(C)NC(=O)c1cnc2c(c1)N(S(=O)(=O)c1cccc(OC(F)(F)F)c1)CCO2 [Example 85, N-tert-butyl-1-(3-(trifluoromethoxy)phenyl-sulfonyl)-2,3-dihydro-1H-pyrido[2,3-b][1,4]oxazine-7-carboxamide] | 0.3 to 3 µM | 30 to 300 nM | – | –
Cc1cccc(S(=O)(=O)N2CCOc3ncc(C(=O)NC(C)(C)C)cc32)c1 [Example 86, N-tert-butyl-1-(m-tolylsulfonyl)-2,3-dihydro-1H-pyrido[2,3-b][1,4]oxazine-7-carboxamide] | 0.3 to 3 µM | 30 to 300 nM | – | –
COc1ccc(S(=O)(=O)N2CCOc3ncc(C(=O)NC(C)(C)CO)cc32)cc1Cl [Example 100, 1-(3-chloro-4-methoxyphenylsulfonyl)-N-(1-hydroxy-2-methylpropan-2-yl)-2,3-dihydro-1H-pyrido[2,3-b][1,4]oxazine-7-carboxamide] | – | 30 to 300 nM | 3 to 30 µM | –
COc1ccc(S(=O)(=O)N2CCOc3ncc(C(=O)NCC(C)(C)O)cc32)cc1F [Example 105] | 0.3 to 3 µM | 30 to 300 nM | – | –
CC(C)(O)CNC(=O)c1cnc2c(c1)N(S(=O)(=O)c1ccc(F)cc1F)CCO2 [Example 106, 1-(2,4-difluorophenylsulfonyl)-N-(2-hydroxy-2-methylpropyl)-2,3-dihydro-1H-pyrido[2,3-b][1,4]oxazine-7-carboxamide] | – | 30 to 300 nM | – | 0.03 to 0.3 µM
COc1ccc(S(=O)(=O)N2CCOc3ncc(C(=O)NCC(C)(C)O)cc32)c(F)c1 [Example 107] | 0.3 to 3 µM | 30 to 300 nM | – | –
CC(C)(O)CNC(=O)c1cnc2c(c1)N(S(=O)(=O)c1ccc(F)c(Cl)c1)CCO2 [Example 108, 1-(3-chloro-4-fluorophenylsulfonyl)-N-(2-hydroxy-2-methylpropyl)-2,3-dihydro-1H-pyrido[2,3-b][1,4]oxazine-7-carboxamide] | 0.3 to 3 µM | 30 to 300 nM | – | –
